Experimental findings from patent publication US20050260153 are described below.

For this series, the system named is VEGF165. Kind of series: competition with a labelled probe. Particulars: 2'-F on C and U, 2'-OMe on G and A except unmodified ribo A at positions 4 and 5; 5'-5' dT cap and 3'-3' dT cap; inhibition of VEGF165/Flt-1 binding much less effective than PEGylated aptamer (lower steric effect); PBS, 1 mM Ca, 1 mM Mg, 37 C; purified recombinant protein; protein details: 125I-labelled.

A weaker result is weaker than the reference pair of the same experiment.

Consider “CGGAAUCAGUGAAUGCUUAUACAUCCG [EYE002 (MacII; 5'-5' capped non-PEGylated VEGF aptamer)]”, for which the binding result was “binds more weakly”.
